Only a part is listed here, and it is no random draw. For part of these data: At the low end of the ranking the order means little. This is one part of the list. For part of these data: Construct or isoform of the protein are uncertain.

Protein sequences, listed by entry. Tags and fused reporters are not part of them. Lines headed by an entry give the natural chain unless they say otherwise; changes in a name come on top.
UniProt P32519: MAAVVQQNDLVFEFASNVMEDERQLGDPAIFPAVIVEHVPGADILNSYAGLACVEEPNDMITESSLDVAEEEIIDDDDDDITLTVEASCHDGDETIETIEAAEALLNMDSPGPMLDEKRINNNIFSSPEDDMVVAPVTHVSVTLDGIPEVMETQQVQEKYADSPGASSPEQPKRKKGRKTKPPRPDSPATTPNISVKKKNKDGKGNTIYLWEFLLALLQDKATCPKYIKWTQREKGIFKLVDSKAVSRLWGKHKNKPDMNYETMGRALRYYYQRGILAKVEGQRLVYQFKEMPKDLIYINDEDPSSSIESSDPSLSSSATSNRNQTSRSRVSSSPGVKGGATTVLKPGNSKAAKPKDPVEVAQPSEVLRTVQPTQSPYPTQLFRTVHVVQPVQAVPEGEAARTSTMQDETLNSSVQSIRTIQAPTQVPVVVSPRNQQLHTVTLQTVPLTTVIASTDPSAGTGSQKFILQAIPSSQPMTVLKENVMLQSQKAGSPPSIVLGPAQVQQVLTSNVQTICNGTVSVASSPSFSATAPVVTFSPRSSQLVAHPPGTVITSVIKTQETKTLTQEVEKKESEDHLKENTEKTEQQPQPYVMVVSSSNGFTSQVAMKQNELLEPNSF
UniProt P50549: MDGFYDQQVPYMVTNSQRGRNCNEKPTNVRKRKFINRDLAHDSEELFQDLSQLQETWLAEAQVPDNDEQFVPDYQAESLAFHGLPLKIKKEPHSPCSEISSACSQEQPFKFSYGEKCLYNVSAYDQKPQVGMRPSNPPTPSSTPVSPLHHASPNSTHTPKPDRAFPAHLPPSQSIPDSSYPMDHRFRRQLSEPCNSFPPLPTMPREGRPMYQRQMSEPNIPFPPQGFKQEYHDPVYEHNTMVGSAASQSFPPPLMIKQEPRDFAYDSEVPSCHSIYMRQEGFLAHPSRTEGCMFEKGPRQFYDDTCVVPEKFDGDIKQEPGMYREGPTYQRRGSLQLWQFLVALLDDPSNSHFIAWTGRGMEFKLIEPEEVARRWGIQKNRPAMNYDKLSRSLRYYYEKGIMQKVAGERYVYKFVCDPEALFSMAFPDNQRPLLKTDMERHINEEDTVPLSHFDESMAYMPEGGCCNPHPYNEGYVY

Holding throughout (assay): DAPPL (digital affinity profiling via proximity ligation, sequencing)
Holding throughout (settings): 10 mM Tris-HCl pH 7.5, 50 mM NaCl, 1 mM DTT, 4% glycerol, room temperature, 30 min; GST-TFs on glutathione beads, 16-mer random dsDNA library, 0.1% …; high values mean tight binding; double strand, one strand shown; scale: fold enrichment (6-mer frequency, TF over GST control)

In one experiment the target is T1, ERG (UniProt P11308).
T1 sequence: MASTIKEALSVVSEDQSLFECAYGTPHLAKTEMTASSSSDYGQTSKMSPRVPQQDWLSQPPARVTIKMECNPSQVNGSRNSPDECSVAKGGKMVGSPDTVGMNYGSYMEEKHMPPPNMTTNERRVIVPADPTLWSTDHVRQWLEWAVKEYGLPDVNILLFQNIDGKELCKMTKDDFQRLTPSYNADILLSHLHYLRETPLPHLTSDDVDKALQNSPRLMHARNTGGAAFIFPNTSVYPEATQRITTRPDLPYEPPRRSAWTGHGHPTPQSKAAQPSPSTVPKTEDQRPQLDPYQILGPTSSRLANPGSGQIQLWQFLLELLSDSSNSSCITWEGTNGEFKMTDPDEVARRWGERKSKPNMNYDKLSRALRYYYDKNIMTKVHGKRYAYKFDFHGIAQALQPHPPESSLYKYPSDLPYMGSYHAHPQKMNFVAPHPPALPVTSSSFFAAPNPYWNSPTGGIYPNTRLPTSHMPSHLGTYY

Another experiment addresses ELF1 (UniProt P32519).
A further experiment concerns the target T2, ELK4 (UniProt P28324-2).
T2 sequence: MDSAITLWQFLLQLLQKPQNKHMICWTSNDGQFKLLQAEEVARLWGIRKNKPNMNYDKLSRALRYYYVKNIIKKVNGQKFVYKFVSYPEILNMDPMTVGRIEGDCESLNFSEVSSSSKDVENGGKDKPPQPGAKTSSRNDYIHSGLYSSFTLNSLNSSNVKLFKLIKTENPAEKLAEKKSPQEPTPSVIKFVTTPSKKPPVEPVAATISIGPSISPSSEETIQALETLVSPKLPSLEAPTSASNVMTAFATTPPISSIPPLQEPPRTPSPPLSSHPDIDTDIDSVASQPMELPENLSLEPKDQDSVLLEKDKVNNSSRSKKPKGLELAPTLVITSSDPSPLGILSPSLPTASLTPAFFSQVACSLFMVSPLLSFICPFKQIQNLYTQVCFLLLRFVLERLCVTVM

A further experiment addresses T3, ETV4 (UniProt P43268).
T3 sequence: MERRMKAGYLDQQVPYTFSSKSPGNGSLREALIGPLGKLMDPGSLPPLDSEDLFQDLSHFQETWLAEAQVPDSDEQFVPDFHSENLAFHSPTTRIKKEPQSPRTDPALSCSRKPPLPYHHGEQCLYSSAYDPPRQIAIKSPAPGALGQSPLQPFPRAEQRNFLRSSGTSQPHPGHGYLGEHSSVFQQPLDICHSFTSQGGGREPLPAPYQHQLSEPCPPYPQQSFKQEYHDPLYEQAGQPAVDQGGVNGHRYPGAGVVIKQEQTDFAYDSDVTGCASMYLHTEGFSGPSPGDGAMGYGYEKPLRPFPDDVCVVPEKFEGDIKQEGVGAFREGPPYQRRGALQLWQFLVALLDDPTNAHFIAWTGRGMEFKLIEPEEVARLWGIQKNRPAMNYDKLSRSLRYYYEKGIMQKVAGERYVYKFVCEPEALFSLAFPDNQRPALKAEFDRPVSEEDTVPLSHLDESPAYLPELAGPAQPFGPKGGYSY

For another experiment, the target named is ETV1 (UniProt P50549).
Another experiment addresses T4, ERF (UniProt P50548).
T4 sequence: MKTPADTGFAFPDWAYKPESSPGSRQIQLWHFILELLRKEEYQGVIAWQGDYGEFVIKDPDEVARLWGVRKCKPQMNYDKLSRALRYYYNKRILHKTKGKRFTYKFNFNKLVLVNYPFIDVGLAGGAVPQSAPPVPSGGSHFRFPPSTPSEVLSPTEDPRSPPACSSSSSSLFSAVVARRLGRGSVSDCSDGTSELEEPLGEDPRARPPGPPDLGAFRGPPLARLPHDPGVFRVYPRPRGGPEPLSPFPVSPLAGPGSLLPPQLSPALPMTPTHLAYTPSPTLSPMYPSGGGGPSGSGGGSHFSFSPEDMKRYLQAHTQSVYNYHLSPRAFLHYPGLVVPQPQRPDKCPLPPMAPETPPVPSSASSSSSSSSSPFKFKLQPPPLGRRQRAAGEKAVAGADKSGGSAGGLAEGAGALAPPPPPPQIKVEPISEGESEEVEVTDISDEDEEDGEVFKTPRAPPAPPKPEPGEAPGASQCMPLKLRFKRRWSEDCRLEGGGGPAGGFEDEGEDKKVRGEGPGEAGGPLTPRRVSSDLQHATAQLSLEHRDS

On to CGGGCG, for which the binding signal was 0.469 with ERG; 0.442 with ELF1; 0.511 with ELK4; 0.416 with ETV4; 0.452 with ETV1; 0.456 with ERF.
For GGAAGG, the binding signal came out at 0.931 with ERG; 0.79 in the experiment with ELF1; 0.783 with ELK4; 0.836 in the experiment with ETV4; 0.836 with ETV1; 0.759 with ERF.
As to GAGTAA, the binding signal with ERG worked out at 0.556; with ELF1, 0.569; in the experiment with ELK4, 0.594; in the experiment with ETV4, 0.552; with ETV1, 0.563; in the experiment with ERF it was 0.568.
For the sequence GCAGCG, the binding signal is 0.822 in the experiment with ERG; 0.823 in the experiment with ELF1; 0.865 with ELK4; 0.857 with ETV4; 0.831 with ETV1; 0.807 with ERF.
With AGGTTG, the binding signal with ERG came out at 0.716; in the experiment with ELF1, 0.754; in the experiment with ELK4, 0.812; with ETV4, 0.7; with ETV1, 0.748; with ERF it was 0.671.
For the sequence GGGTAA, the binding signal in the experiment with ERG is 0.83; in the experiment with ELF1, 0.889; with ELK4, 0.982; with ETV4, 0.887; with ETV1, 0.946; with ERF it was 0.908.
As for GTGAAG, the binding signal came out at 0.537 in the experiment with ERG; 0.549 with ELF1; 0.526 with ELK4; 0.556 with ETV4; 0.597 in the experiment with ETV1; 0.589 with ERF.
Consider AGGGTA, for which the binding signal was 0.854 with ERG; 0.89 in the experiment with ELF1; 0.975 with ELK4; 0.861 with ETV4; 0.91 in the experiment with ETV1; 0.942 with ERF.
Consider CCCAGG, for which the binding signal with ERG was 0.772; with ELF1, 0.766; with ELK4, 0.741; in the experiment with ETV4 it was 0.86; with ETV1 it was 0.784; with ERF it was 0.694.
Consider AGGTAG, for which the binding signal with ERG is 0.673; with ELF1 it was 0.653; in the experiment with ELK4 it was 0.605; in the experiment with ETV4, 0.612; with ETV1, 0.63; in the experiment with ERF, 0.583.
Turning to CGGGGG, the binding signal was 0.5 in the experiment with ERG; 0.461 in the experiment with ELF1; 0.487 with ELK4; 0.466 with ETV4; 0.517 with ETV1; 0.531 with ERF.
For TTAGAC, the binding signal with ERG worked out at 0.841; with ELF1, 0.838; with ELK4 it was 0.908; in the experiment with ETV4 it was 0.871; with ETV1, 0.844; with ERF, 0.862.
For ATGGAG, the binding signal in the experiment with ERG amounted to 0.556; with ELF1, 0.541; with ELK4, 0.503; with ETV4 it was 0.572; with ETV1 it was 0.587; in the experiment with ERF it was 0.618.
For the sequence GGCGAC, the binding signal in the experiment with ERG came to 0.828; in the experiment with ELF1, 0.848; with ELK4 it was 0.714; with ETV4 it was 0.83; in the experiment with ETV1 it was 0.791; with ERF it was 0.834.
Regarding GTCCGT, the binding signal is 0.504 in the experiment with ERG; 0.502 with ELF1; 0.549 with ELK4; 0.523 in the experiment with ETV4; 0.519 with ETV1; 0.454 with ERF.
For AGACCC, the binding signal in the experiment with ERG was determined as 0.716; in the experiment with ELF1 it was 0.699; in the experiment with ELK4, 0.617; with ETV4, 0.719; with ETV1, 0.693; with ERF, 0.619.
TCAGAA: the binding signal in the experiment with ERG stood at 0.927; with ELF1, 0.942; with ELK4, 0.829; with ETV4, 0.908; in the experiment with ETV1 it was 0.876; with ERF, 0.925.
In the case of AGACGC, the binding signal in the experiment with ERG was 0.691; in the experiment with ELF1 it was 0.713; with ELK4 it was 0.726; with ETV4, 0.726; with ETV1, 0.697; in the experiment with ERF it was 0.717.
With CCAGTA, the binding signal with ERG was found to be 0.674; with ELF1, 0.694; with ELK4, 0.68; in the experiment with ETV4, 0.693; with ETV1, 0.666; in the experiment with ERF it was 0.638.
Consider GACTAA, for which the binding signal with ERG amounted to 0.901; with ELF1, 0.925; with ELK4, 0.797; with ETV4, 0.969; in the experiment with ETV1 it was 0.926; in the experiment with ERF, 0.925.
Turning to TAGGCG, the binding signal with ERG turned out to be 0.652; in the experiment with ELF1 it was 0.673; in the experiment with ELK4 it was 0.567; with ETV4, 0.623; with ETV1, 0.684; with ERF, 0.57.
As to CAGCAG, the binding signal with ERG was determined as 0.782; in the experiment with ELF1, 0.869; with ELK4, 0.878; with ETV4 it was 0.912; with ETV1 it was 0.821; with ERF, 0.806.
GTCGAG: the binding signal in the experiment with ERG came to 0.442; in the experiment with ELF1 it was 0.416; with ELK4, 0.421; in the experiment with ETV4, 0.473; with ETV1, 0.473; with ERF, 0.485.
Take AAACGT: the binding signal with ERG was found to be 0.924; in the experiment with ELF1 it was 0.952; in the experiment with ELK4 it was 0.896; with ETV4 it was 0.927; in the experiment with ETV1 it was 0.95; with ERF it was 0.958.
With CAGGGG, the binding signal with ERG came to 0.543; with ELF1, 0.588; in the experiment with ELK4, 0.535; in the experiment with ETV4, 0.584; in the experiment with ETV1 it was 0.512; with ERF, 0.634.
In the case of GGAGGG, the binding signal in the experiment with ERG is 0.315; in the experiment with ELF1, 0.318; with ELK4 it was 0.357; in the experiment with ETV4, 0.31; in the experiment with ETV1, 0.337; in the experiment with ERF it was 0.316.
As for GGAGTG, the binding signal in the experiment with ERG turned out to be 0.434; in the experiment with ELF1, 0.368; in the experiment with ELK4 it was 0.446; with ETV4, 0.4; with ETV1 it was 0.433; with ERF it was 0.414.

(Values after publication PMC7862700.)
